Test results taken from patent US20260153494A1 (AGRICUL TURAL UNIVERSITY OF ATHENS, priority 2023, published 2026).
For part of these data: At least one read-out could not be matched to a standard name with certainty. Some of these results come from one statement about several compounds together.

Legend:
[1] = target: immobilized FGGsh155:CB[8] (Triticum aestivum, UniProt Z9G7Y6U750); assay: Determination of butachlor in spiked water samples with the immobilized enzyme biosensor
Method: The half maximal inhibitory concentration (IC50), namely the inhibitor concentration that leads to 50% inhibition of the enzyme activity of FGGsh155:CB[8], was determined for constant substrate concentrations and varying butachlor concentrations. The utilised substrate concentrations were equal to the kinetic constant value of S0.5 for CDNB and 2.5 times the CDNB concentration for GSH. The correlation between the butachlor concentration from 0 to 600 nM (0 to 0.6 μM) and the remaining activity (%) of the immobilized enzyme was linear, thus standard curves for known herbicide concentrations were developed. The methodology was tested for drinking water samples derived from the Athens water supply network, as well as commercial mineral water (see Example 11). The results were analysed with the Graphpad Prism software.
The basis for the detection of the herbicide butachlor in water samples was the determination of inhibition induced in the immobilized enzyme form. […] The linear response of inhibition of the immobilized enzyme due to butachlor was described by the equation y=−101.3x+98.07, R^2=0.991 (FIG. 23A). This observation led to the development of a methodology for determination of butachlor in drinking water samples based on the detection of inhibition as determined by a standard reference curve. Accordingly, standard curves were generated for spiked, with known concentrations of butachlor, samples of drinking water from the Athens' supply network (y=−81.84x+98.81, R^2=0.997) and bottled mineral water (y=−72.69x+99.46, R^2=0.995) (FIG. 23B). The detection range of butachlor with this methodology was determined up to 180 μg/L (600 nM) in water samples, with the acceptable amount of a pesticide in surface water at 1.0 μg/L and in drinking water at 0.1 μg/L (Council Directive 98/83/EC). The detection range up to 0.6 μM (180 μg/L) of the developed biosensor, with detection limit at approximately 31 μg/L for butachlor, achieves comparatively high sensitivity and selectivity.
The methodology was evaluated with recovery experiments of spiked drinking water samples, with known but random concentrations of butachlor within the range of the standard curve. […] The correlation between the added and found butachlor tested concentrations for network supply water (R^2 0.9993, p<0.0001) and mineral water (R^2 0.9987, p<0.0001) is depicted in FIG. 23C & 23D.

[2] = Steady-state kinetic analysis of FGG-GSTFs, CDNB/GSH substrate system; type: biochemical
Method: GST activity assays were carried by using the 1-chloro-2,4-dinitrobenzene (CDNB)/glutathione (GSH) substrate system as described previously (Axarli et al., 2017; Georgakis et al., 2020). Determination of enzyme activity was conducted using 1 mM CDNB and 2.5 mM GSH final concentration in 0.1 M KH2PO4, PH 6.5 and 37° C. Kinetic analysis of the potential supramolecular protein complexes was performed as previously described (Axarli et al., 2016, Georgakis et al., 2020) five days after addition of CB[8] to the enzyme solution in 1:1 stoichiometry. Protein precipitates were removed by centrifugation at 10,000 rpm for 10 min prior to the analysis. The steady state data were processed using GraphPad Prism version 7 (GraphPad Prism Software, Inc.). Turnover numbers were evaluated for one active site per subunit of enzyme. Specific activity (SA) was estimated in micromoles per minute per milligram of protein (μmol min-1 mg-1). Determination of protein concentration was carried using the Bradford assay with bovine serum albumin as standard (Bradford, 1976).
The kinetic parameters of FGGsh101 and FGGsh155 were analyzed both in absence of CB[8] and five days after the addition of the macrocyclic host in 1:1 ratio. This was determined according to the fluorescence intensity monitoring experiments, where the reduction of fluorescence emission appeared to reach a plateau after 4-5 days. (see Example 3)

[3] = Thermal stability (Tm) by differential scanning fluorimetry; type: physicochemical; details: after addition of CB[8], versus control / dimeric enzyme
Method: The thermostability of FGG-GSTFs, FGGsh101 and FGGsh155 was assessed by differential scanning fluorimetry (DSF) in the presence of the macrocyclic compound CB[8]. CB[8] was added in stoichiometry of 1:1 and 2:1 enzyme to host concentration. The reaction was performed in 50 mM KH2PO4 solution, pH 7.14, using either 15 μM enzyme and 15 μM CB[8] (1:1) or 15 μM enzyme and 7.5 μM CB[8] (2:1). A “control” reaction for each ratio was also measured, where only CB[8]'s solvent of was added to the enzyme. Differential scanning fluorimetry was performed in 20 mM KH2PO4 buffer, pH 7, with 4 μg of protein sample, according to published methods (Huynh & Partch, 2015). Thermal shift assays we carried using a Real-time PCR StepOne™ instrument (Applied Biosystems, USA) and the SYPRO Orange protein dye at a temperature range between 15° C. and 99° C. with a ramping rate of 1%. Temperature of protein denaturation midpoint (Tm) was estimated by the first derivative of the normalized fluorescence data.

[4] = unmodified FGG-GSTF, before CB[8]
[5] = with CB[8] in 1:1 stoichiometry

| Molecule | Recovery ([1]; Athens water supply network, added 0.05 μM) [%] | Recovery ([1]; Athens water supply network, added 0.2 μM) [%] | Recovery ([1]; Athens water supply network, added 0.3 μM) [%] | Recovery ([1]; Athens water supply network, added 0.4 μM) [%] | Recovery ([1]; Athens water supply network, added 0.6 μM) [%] | Recovery ([1]; Bottled mineral water, added 0.1 μM) [%] | Recovery ([1]; Bottled mineral water, added 0.2 μM) [%] | Recovery ([1]; Bottled mineral water, added 0.3 μM) [%] | Recovery ([1]; Bottled mineral water, added 0.4 μM) [%] | Recovery ([1]; Bottled mineral water, added 0.55 μM) [%] | Recovery, mean value ([1]; spiked drinking water from the supply network (N=5), standard deviation 4.28%) [%] | Recovery, mean value ([1]; spiked mineral water samples (N=5), standard deviation 3.75%) [%] | catalytic efficiency (kcat/Km) for the CDNB substrate [2, 4] [M⁻¹ s⁻¹] | catalytic efficiency (kcat/Km) for the CDNB substrate [2, 5] [M⁻¹ s⁻¹] | increase of Tm2 over Tm0 [3] |
| --- | --- | --- | --- | --- | --- | --- | --- | --- | --- | --- | --- | --- | --- | --- | --- |
| CCCCOCN(C(=O)CCl)c1c(CC)cccc1CC [butachlor, 2-chloro-2,6-diethyl-N-butoxymethyl-acetanilide] | 94.96 ± 4.3 | 96.16 ± 0.17 | 103.12 ± 1.88 | 104.13 ± 0.87 | 102.55 ± 0.09 | 96.47 ± 1.89 | 106.86 ± 1.96 | 102.46 ± 1.55 | 103.49 ± 3.13 | 102 ± 1.25 | 100.19 | 102.26 |  |  |  |
| FGGsh101: phi class GST mutant sh101 (SEQ ID NO: 1) with N-terminal phenylalanine-glycine-glycine tag; dimer (protein, N-terminal FGG tag; dimer) MFGGAPVKVFGPAMSTNVARVTLCLEEVGAEYEVVNIDFNTMEHKSPEHLARNPFGQIPAFQDGDLLLWESRAISKYVLRKYKTDEVDLLREGNLKEAAMVDVWTEYDAHTYNPALSPIVYECLINPLMRGLPTNQTVVDESLEKLKKVLEVYEARLSQHKYLAGDFVSFADLNHFPYTFYFMATPHAALFDSYPHVKAWWDRLMARPAVKKIAATMVPPKA |  |  |  |  |  |  |  |  |  |  |  |  | 6625.2 | 4014.8 | 13-15 °C |
| FGGsh155: phi class GST mutant sh155 (SEQ ID NO: 2) with N-terminal phenylalanine-glycine-glycine tag; dimer (protein, N-terminal FGG tag; dimer) MFGGAPVKVFGPAMSTNVARVTLCLEEVGAEYEVVDIDFKAMEHKSPEHLVRNPFGQIPAFQDGDLLLFESRAIAKYVLRKYKTDEVDLLREGNLKEAAMVDVWTEYDAHTYNPALSPIVYECLINPLMRGLPTNQTVVDESLEKLKKVLEVYEARLSQHKYLAGDFVSFADLNHFPYTFYFMATPHAALFDSYPHVKAWWDRLMARPAVKKIAATMVPPKA |  |  |  |  |  |  |  |  |  |  |  |  | 3645 | 2489.7 | 13-15 °C |
